The target of assay [1] is T1, recombinant inter-α-inhibitor heavy chain 1 (rHC1), wild type (human) (UniProt P19827).
T1 sequence: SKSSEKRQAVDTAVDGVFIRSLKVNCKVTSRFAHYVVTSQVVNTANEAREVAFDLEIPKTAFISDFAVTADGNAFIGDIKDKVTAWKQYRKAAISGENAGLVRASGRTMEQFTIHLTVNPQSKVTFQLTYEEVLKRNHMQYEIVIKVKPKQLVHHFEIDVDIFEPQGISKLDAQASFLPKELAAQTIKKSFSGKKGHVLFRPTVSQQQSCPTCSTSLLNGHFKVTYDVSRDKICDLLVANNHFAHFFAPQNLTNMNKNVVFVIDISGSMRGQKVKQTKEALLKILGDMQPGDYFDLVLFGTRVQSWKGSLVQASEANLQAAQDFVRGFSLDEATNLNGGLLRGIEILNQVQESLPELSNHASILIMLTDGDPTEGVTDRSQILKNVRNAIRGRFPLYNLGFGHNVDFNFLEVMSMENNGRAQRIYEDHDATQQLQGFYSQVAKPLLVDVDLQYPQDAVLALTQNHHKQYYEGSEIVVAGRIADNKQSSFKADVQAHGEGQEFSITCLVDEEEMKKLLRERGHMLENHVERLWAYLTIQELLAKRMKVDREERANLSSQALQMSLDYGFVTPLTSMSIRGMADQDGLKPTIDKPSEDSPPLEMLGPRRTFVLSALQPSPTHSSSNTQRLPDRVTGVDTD
Put plainly: SPR; 1,500 RU rHC1 proteins immobilised on a C1 chip by amide cross-linking; ligand as analyte; HEPES-buffered saline pH 7.5, 0.05% Tween 20, 10 mM EDTA; 50 μl/min; multicycle kinetics, 1:1 Langmuir; both purified.

Assay [2] concerns the target T1, recombinant inter-α-inhibitor heavy chain 1 (rHC1), wild type (human). Put plainly: SPR; 1,500 RU rHC1 proteins immobilised on a C1 chip by amide cross-linking; ligand as analyte; HEPES-buffered saline pH 7.5, 0.05% Tween 20, 2 mM Mg2+, 2 mM Mn2+; 50 μl/min; multicycle kinetics, 1:1 Langmuir; both purified.
Assay [3] has the same target. As to the kind of experiment: SPR; initial SPR screening of fibronectin fragments with rHC1; metal ion-independent.

These are yes or no findings as the source states them, for the method shown. For some assays here: A result given as binding can be weak or reduced; the word gives no strength.

TGFβ3, mature growth factor (ligand): in assay [1], the binding result is “no binding (tested: 7.8–500 nM)”.
For “LTBP1 EGF region, recombinant domain (domain or fragment)”, in assay [2], the binding result was “no binding (tested: 0.156–10 nM)”.
“H120 fragment of fibronectin (heparin-binding region) (domain or fragment)”: in assay [3], the binding result is “binds”.
As to TGFβ1, mature growth factor (ligand), in assay [1], the binding entry is “no binding (tested: 7.8–500 nM)”.
For the substance “LTBP1 C-terminal region (CT), recombinant domain (domain or fragment)”, the binding entry in assay [2] was “no binding (tested: 0.156–10 nM)”.
